Out of some 290,000 compounds screened, about 110 (0.038%) were called active. This list was built around the results that the source calls inconclusive (neither active nor inactive); the mix of calls is not that of the screen. Calls follow the shape of the dose curve; as a rule, active = well fitted inhibition curve with a large enough effect in the polarisation, with a control signal flat (not every such curve was filed as active); inconclusive = small, poorly fitted or top-dose-only effect, or effect the other way, or a change in a side signal; inactive = no such curve, though single readings can be large or run the other way; the % refers to the polarisation. Potencies beside an inconclusive call are fits to weak or partial responses and may not hold up. “Side channel” marks fits to a control or component signal instead of the main read-out.
target: Histone-lysine N-methyltransferase 2A (Homo sapiens) (UniProt Q03164); experiment: qHTS Fluorescence Polarization Assay for Inhibitors of MLL CXXC domain - DNA interaction; details: MLL-CXXC / FITC-HOXA9 DNA fluorescence polarization; activity change, negative = inhibition: at 115 µM (top of the series)
In short: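 Purified MLL-CXXC (added from a 7 uM solution) was preincubated 5 min at ambient with pinned compounds in 50 mM Tris-HCl pH 7.5, 50 mM NaCl, 1 mM DTT, 0.05% BSA. Fluorescein-labeled HOX-A9 DNA (50 nM solution) followed, 30 min, then polarization read.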
Potency is read from the fitted curve at half-maximal effect.

Sequences of proteins named here, by UniProt entry; tags and fusion partners are left off.
UniProt Q03164, whole entry, looked up: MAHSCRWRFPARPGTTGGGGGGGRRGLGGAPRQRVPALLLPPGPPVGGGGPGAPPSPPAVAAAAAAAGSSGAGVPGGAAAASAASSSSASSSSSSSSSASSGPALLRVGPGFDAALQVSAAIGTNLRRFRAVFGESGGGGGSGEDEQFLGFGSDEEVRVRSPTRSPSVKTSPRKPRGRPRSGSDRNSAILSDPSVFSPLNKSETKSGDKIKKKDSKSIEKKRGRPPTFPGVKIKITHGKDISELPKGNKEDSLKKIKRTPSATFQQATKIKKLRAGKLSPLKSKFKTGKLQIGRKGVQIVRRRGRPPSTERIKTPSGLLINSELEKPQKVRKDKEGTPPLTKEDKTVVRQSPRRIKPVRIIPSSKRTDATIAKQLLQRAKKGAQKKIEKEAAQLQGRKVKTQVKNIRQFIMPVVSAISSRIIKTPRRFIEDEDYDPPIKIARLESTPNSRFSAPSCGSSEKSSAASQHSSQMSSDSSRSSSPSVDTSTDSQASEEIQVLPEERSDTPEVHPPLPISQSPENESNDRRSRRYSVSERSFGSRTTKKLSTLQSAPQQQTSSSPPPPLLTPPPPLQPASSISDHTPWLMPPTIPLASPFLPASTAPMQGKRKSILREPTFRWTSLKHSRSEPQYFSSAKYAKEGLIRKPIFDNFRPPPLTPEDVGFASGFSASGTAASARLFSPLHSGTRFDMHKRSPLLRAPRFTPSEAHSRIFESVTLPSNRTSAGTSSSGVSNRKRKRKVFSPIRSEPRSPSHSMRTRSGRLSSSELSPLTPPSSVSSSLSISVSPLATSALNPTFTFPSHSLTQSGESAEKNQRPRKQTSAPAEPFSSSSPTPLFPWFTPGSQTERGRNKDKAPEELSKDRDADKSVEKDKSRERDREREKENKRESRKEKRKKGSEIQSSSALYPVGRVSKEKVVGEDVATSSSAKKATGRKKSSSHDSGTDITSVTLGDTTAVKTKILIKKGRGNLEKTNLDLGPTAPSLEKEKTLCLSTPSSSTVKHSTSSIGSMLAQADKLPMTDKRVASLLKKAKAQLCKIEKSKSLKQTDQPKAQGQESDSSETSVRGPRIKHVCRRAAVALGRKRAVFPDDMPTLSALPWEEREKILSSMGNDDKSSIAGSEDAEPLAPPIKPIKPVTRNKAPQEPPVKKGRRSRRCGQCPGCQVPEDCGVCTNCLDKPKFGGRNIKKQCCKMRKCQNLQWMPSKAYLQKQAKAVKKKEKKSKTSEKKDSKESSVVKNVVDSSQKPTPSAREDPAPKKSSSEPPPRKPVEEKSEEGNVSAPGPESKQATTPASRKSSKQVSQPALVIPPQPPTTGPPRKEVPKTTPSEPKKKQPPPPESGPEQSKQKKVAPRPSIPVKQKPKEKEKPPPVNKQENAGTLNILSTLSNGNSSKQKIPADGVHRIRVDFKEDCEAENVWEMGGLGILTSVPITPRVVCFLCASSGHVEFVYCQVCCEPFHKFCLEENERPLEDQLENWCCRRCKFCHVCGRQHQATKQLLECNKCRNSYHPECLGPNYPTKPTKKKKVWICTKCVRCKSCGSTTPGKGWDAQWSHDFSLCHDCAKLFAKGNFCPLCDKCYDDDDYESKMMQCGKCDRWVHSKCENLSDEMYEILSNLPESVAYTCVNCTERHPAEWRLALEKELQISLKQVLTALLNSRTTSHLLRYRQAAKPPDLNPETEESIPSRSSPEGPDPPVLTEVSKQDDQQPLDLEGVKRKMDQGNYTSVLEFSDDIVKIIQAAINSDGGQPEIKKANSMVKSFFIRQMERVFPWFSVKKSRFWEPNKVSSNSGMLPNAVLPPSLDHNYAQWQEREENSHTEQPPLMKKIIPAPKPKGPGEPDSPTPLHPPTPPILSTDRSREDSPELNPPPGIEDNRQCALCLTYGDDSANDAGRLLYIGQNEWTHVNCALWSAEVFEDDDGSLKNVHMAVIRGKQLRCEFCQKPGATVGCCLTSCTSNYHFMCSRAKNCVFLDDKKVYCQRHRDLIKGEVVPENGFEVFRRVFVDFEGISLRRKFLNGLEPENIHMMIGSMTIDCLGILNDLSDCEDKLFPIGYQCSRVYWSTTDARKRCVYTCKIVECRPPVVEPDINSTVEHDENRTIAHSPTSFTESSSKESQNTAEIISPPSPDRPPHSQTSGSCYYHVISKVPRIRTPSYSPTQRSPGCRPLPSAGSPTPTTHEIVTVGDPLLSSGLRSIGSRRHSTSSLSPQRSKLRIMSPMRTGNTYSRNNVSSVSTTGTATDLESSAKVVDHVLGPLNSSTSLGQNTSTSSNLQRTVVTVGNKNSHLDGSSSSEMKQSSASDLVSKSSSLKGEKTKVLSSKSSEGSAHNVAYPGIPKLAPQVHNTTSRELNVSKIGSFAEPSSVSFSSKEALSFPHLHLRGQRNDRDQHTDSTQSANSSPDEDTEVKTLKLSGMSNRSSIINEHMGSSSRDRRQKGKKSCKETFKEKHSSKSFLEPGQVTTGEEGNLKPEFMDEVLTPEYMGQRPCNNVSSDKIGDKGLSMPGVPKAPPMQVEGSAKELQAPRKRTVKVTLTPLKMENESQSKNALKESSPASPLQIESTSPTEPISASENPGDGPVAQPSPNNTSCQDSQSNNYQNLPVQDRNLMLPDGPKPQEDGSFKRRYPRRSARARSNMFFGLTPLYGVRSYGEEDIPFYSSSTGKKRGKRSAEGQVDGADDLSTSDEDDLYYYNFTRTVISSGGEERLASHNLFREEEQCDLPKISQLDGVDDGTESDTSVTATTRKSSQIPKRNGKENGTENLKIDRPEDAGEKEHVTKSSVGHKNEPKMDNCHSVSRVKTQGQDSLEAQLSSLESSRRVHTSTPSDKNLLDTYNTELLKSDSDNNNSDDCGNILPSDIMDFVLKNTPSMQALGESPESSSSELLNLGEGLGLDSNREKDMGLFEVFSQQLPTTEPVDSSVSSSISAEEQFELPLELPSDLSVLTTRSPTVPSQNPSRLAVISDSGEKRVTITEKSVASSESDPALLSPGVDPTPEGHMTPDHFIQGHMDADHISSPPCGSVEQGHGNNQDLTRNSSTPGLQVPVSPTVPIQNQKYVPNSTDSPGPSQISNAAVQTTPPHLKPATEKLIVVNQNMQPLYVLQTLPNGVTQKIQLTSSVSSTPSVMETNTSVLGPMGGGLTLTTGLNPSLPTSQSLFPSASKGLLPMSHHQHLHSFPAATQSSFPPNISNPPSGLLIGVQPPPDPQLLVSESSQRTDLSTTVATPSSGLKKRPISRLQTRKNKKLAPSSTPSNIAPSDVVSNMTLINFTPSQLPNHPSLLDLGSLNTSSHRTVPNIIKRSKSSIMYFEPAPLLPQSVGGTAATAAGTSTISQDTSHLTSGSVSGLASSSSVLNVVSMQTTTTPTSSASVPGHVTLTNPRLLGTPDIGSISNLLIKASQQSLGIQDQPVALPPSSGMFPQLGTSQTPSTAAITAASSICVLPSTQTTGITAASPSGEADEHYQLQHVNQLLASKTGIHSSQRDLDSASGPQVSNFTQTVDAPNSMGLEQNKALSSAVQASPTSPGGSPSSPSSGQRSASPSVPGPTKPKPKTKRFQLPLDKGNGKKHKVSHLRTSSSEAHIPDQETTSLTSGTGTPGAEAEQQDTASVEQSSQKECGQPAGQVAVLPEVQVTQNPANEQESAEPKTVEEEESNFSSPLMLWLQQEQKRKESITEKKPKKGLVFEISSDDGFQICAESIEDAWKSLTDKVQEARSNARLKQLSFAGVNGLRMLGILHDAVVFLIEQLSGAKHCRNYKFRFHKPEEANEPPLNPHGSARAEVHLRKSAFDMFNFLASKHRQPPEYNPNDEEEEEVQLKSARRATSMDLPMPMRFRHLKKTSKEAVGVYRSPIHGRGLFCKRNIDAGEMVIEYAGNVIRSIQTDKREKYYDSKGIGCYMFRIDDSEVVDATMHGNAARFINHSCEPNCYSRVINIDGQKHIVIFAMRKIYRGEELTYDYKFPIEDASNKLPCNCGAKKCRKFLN

Structure (SMILES)	Potency	activity change, negative = inhibition
Cc1ccn2c(Nc3ccccc3)c(-c3ccccn3)nc2c1	inconclusive: 25.1 µM [quencher, side channel, partial curve]	
COC(=O)CCCCCCCCCC[N+]1(C)CCCCC1	inconclusive: 10 µM [fluorescent, side channel, single point]	
N#CC(C#N)=C1NC(N)=C(C#N)C(c2ccccc2)=C1C#N	inconclusive: 31.6 µM [fluorescent, side channel, partial curve]	
CCN(CC(=O)Nc1ccc(OC)cc1)C(=O)CCS(=O)(=O)c1ccc(C)cc1	inconclusive: 14.1 µM [fluorescent, side channel, single point]	
C(=N\Nc1nc2ccccc2[nH]1)/c1cccc2cccnc12	inconclusive: 39.8 µM [quencher, side channel, partial curve]	
Cc1ccnc(NC(=O)c2ccc([N+](=O)[O-])s2)c1	inconclusive: 11.2 µM [fluorescent, side channel, single point]	
O=C(COC(=O)/C=C/c1cccs1)Nc1nc(-c2ccccc2)cs1	inactive	
Nc1nc(Cl)cc(Nc2ccccc2Cl)n1	inconclusive: 89.1 µM [fluorescent, side channel, single point]	
Cc1ccc(C(=O)N2CCc3ccccc32)cc1	inconclusive: 31.6 µM [quencher, side channel, single point]	
CCNC(=S)N/N=C/c1cccc(OCc2c(F)cccc2Cl)c1	inactive	
CCC(=C(c1ccc(OC)cc1)c1ccc(OC)cc1)c1cn(CC(O)CN2CCN(C)CC2)c2ccccc12 (stereo not drawn)	inconclusive: 31.6 µM [quencher, side channel, partial curve]	
Cc1ccccc1N1CCN(C2CCCN(C(=O)CCc3c(C)noc3C)C2)CC1 (stereo not drawn)	inconclusive: 15.8 µM [quencher, side channel, partial curve]	
COc1ccc(OC)c(C2C(C(=O)Nc3nc4ccccc4s3)=C(C)NC3=C2C(=O)CCC3)c1 (stereo not drawn)	inactive	
Cn1cc(/C=C(\NC(=O)c2ccccc2)C(=O)NCCN2CCOCC2)c2ccccc21	inconclusive: 31.6 µM [quencher, side channel, single point]	
O=C(O)/C=C/c1cn(-c2ccccc2)nc1-c1cc2ccccc2oc1=O	inactive	
Cc1ccc(Cn2c(/C=C/c3ccco3)nc3ccccc32)cc1	inactive	
O=c1c2c(nc3cc(-c4ccccc4)[nH]n13)CCS2	inactive	
COc1ccc(CCNC(=O)CSc2ccc(Br)cc2)cc1OC		inconclusive: 3.21% [phenotype inactive]

By substructure: the entries above containing an NH in an aromatic ring (two)
Structure (SMILES)	Potency	activity change, negative = inhibition
C(=N\Nc1nc2ccccc2[nH]1)/c1cccc2cccnc12	inconclusive: 39.8 µM [quencher, side channel, partial curve]	
O=c1c2c(nc3cc(-c4ccccc4)[nH]n13)CCS2	inactive	

— PubChem BioAssay AID2662 (National Center for Advancing Translational Sciences (NCATS), 2010)
